± gives the standard deviation of the averaged measurements. The entries are a selection whose mix differs from that of the whole data set. Small differences around the control level are noise.

By UniProt entry, the sequences of proteins in these tests, tags left out. Where a name states a change or a piece, a line headed by the entry shows the natural chain unless it says otherwise.
UniProt Q9UBC2: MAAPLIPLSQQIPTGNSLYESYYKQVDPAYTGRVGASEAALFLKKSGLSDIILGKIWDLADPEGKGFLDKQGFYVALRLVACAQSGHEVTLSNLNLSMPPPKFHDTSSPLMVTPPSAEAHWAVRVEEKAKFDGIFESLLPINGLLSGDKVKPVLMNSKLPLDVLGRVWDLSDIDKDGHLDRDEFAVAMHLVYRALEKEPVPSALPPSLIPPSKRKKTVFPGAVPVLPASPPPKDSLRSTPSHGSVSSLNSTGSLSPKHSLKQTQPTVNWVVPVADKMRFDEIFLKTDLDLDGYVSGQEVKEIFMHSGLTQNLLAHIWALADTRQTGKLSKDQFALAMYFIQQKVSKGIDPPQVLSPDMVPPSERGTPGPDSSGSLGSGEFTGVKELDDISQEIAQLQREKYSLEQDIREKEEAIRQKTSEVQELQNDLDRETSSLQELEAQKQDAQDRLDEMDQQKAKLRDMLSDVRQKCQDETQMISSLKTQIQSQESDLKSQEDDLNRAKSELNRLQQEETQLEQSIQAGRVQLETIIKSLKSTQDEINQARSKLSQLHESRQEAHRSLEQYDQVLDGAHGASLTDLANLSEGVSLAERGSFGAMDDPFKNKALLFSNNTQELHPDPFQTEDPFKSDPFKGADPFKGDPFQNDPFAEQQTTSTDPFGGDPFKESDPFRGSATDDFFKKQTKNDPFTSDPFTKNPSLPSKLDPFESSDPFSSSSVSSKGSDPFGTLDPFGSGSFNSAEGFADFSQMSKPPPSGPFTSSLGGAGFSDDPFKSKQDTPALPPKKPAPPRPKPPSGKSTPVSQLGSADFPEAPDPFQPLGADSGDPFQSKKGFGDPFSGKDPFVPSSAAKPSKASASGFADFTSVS
UniProt O14929: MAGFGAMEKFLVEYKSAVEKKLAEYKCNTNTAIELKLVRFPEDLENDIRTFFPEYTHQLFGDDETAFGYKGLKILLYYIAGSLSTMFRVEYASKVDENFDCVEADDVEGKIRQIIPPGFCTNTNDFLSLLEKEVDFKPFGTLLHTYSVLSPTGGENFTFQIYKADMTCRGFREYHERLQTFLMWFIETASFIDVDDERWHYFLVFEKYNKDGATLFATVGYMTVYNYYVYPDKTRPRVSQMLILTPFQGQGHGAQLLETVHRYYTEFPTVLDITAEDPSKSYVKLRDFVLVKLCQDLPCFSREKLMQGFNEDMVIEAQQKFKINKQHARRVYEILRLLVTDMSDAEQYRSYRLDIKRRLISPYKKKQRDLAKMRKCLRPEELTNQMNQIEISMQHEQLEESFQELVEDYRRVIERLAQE
UniProt O43310: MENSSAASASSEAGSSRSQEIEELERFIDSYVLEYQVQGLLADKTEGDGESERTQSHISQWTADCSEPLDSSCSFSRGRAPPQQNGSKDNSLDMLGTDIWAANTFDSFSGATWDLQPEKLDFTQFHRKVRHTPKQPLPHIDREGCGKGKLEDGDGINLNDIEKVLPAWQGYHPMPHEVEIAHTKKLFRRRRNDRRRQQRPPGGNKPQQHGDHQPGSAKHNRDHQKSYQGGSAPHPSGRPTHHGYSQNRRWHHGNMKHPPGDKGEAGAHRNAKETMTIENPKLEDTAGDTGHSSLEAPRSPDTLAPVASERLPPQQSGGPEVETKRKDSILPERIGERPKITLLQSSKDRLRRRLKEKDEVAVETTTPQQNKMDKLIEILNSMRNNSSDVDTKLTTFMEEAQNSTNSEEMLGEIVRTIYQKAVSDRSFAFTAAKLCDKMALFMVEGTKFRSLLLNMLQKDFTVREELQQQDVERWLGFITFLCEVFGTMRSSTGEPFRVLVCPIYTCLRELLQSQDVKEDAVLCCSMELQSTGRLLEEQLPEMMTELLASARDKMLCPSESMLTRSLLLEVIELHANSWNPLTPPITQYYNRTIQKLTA
UniProt O15126: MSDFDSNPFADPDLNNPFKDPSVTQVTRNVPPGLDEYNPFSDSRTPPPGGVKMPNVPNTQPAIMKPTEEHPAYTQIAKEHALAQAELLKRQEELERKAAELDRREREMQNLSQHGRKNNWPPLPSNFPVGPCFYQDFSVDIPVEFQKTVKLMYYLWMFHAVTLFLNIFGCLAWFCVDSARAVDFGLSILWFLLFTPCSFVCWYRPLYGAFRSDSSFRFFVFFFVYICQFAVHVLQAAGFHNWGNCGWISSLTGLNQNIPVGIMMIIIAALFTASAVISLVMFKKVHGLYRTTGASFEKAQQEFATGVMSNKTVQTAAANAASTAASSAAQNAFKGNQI
UniProt O14523: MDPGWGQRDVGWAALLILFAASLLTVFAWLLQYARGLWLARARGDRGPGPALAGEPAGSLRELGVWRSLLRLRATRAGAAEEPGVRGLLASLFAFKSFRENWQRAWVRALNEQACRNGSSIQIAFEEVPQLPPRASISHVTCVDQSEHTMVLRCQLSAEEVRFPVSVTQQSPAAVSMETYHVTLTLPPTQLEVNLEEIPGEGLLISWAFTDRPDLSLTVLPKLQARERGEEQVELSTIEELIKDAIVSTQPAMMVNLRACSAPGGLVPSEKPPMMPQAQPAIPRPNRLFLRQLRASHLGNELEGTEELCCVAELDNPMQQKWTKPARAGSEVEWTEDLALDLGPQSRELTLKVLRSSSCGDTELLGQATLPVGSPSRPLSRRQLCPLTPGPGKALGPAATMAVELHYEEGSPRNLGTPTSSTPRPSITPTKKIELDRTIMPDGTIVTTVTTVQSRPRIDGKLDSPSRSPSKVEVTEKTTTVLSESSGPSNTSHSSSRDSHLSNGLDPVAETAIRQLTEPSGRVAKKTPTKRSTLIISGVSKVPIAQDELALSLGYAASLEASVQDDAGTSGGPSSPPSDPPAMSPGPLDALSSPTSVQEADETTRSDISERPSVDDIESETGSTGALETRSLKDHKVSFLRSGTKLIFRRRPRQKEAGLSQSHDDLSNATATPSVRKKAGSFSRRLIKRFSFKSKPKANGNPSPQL
UniProt Q8IX01: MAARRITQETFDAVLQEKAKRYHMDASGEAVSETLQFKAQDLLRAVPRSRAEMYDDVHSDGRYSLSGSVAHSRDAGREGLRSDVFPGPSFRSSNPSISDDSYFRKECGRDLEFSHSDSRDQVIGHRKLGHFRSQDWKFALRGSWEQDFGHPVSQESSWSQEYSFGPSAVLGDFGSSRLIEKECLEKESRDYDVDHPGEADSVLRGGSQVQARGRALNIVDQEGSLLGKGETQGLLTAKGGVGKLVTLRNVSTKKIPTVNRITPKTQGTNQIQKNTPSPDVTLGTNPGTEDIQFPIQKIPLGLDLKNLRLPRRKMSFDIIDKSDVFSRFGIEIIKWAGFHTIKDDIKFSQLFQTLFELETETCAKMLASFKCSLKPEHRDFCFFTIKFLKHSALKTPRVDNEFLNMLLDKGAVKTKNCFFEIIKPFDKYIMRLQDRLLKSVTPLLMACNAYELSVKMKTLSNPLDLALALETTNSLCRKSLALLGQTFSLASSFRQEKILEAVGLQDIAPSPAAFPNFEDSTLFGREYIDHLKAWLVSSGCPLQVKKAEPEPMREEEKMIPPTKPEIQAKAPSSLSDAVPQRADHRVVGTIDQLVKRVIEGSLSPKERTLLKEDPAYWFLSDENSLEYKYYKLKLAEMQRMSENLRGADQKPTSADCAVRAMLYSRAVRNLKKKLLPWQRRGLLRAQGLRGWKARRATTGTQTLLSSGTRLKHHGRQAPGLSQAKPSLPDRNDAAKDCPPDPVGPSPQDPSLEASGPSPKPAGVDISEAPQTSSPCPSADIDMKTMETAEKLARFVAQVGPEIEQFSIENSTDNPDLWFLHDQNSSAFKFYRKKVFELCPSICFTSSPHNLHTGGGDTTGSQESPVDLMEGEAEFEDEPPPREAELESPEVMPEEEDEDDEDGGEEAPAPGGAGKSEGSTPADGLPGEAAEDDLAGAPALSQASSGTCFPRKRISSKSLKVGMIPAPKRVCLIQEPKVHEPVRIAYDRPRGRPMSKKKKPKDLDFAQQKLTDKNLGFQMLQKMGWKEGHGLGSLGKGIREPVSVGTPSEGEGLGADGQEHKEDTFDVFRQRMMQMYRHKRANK
UniProt O14737: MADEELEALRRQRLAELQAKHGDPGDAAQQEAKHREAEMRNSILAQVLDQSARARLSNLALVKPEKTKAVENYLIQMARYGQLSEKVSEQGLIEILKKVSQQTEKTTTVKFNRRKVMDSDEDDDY
UniProt O14925: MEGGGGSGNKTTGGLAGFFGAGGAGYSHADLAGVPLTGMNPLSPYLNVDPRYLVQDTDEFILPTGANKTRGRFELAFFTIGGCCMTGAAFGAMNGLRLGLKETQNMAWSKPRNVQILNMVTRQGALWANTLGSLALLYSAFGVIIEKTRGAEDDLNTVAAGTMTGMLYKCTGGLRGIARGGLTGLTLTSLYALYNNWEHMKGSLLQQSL
UniProt O00534: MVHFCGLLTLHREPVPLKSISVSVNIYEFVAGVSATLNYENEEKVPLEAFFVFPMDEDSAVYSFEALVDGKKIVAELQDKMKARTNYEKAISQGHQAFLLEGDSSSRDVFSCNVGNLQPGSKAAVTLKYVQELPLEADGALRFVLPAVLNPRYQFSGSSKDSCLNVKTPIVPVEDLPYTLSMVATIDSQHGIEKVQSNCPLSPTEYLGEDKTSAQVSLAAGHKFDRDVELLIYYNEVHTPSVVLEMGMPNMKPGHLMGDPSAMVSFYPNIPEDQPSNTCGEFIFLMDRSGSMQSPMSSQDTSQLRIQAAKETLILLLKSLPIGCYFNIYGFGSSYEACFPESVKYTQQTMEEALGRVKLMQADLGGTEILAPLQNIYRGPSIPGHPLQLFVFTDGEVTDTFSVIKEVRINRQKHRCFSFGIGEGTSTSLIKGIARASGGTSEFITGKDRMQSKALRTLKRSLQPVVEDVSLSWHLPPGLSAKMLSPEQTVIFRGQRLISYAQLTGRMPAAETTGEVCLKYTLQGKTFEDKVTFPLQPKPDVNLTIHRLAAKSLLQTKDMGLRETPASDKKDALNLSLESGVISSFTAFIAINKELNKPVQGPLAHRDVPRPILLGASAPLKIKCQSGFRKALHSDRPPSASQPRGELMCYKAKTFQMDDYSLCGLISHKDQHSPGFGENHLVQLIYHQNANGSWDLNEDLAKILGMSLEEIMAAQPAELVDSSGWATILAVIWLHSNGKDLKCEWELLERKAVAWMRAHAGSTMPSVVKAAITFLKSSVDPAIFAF
UniProt O00233: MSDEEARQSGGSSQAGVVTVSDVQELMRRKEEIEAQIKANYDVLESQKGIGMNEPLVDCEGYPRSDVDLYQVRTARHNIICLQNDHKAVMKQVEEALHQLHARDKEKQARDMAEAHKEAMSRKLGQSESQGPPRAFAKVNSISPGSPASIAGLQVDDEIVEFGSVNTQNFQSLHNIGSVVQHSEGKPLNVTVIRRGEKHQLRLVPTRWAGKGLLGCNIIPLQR
UniProt O00462: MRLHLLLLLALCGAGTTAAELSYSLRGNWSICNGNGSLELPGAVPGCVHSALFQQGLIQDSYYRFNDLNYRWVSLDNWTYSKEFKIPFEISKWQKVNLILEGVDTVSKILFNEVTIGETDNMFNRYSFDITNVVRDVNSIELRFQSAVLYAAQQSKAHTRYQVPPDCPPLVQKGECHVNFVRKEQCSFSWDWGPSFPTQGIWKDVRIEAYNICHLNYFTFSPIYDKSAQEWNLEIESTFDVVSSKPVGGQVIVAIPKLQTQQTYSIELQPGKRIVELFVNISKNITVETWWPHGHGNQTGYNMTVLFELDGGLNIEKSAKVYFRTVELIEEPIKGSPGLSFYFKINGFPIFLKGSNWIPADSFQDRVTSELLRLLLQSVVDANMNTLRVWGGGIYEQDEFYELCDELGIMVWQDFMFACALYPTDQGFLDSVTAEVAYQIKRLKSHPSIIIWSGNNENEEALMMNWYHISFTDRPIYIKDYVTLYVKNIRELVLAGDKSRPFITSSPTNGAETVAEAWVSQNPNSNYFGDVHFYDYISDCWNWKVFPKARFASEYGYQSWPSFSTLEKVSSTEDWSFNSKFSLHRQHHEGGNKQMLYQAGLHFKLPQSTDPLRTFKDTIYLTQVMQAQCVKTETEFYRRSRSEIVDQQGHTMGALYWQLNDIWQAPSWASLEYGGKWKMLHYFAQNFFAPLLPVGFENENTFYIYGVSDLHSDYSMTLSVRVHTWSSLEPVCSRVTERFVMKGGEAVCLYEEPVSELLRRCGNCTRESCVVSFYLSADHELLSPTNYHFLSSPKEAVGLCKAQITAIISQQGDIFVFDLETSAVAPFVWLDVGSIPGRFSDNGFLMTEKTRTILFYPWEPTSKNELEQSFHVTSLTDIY
UniProt O15541: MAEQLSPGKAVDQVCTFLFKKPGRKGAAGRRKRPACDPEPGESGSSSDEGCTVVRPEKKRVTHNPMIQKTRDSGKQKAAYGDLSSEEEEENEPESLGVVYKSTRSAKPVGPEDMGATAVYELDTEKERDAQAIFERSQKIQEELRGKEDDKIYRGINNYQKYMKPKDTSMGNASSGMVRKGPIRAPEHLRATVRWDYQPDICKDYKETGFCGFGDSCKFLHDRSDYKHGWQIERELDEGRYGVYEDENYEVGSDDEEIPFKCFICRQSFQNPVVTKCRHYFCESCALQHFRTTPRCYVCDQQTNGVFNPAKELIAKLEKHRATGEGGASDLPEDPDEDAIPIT

Compound in the test: Nc1ncnc2c1ncn2[C@@H]1O[C@H](COP(=O)(O)OP(=O)(O)NP(=O)(O)O)[C@@H](O)[C@H]1O [adenylyl imidodiphosphate]
The experiment in a line: NP40-soluble protein abundance relative to vehicle (solubility fold change) (ratio); higher = more soluble protein in presence of AMP-PNP. The gist of the method:
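Jurkat crude lysate prepared with a Dounce homogeniser was treated at eight concentrations spanning 0.1 to 10 mM, 10 min at room temperature then 3 min at 37 °C. Solubilisation with 0.8% NP40 and benzonase and ultracentrifugation preceded TMT labelling of the supernatant for LC-MS/MS. Fold change against the detergent-processed vehicle was determined per replicate from vsn-normalised intensities, across three independent experiments.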

As to SUPT5H (UniProt O00267), the NP40-soluble protein abundance by setting is: (concentration: 0.1mM) 1.05 ± 0.064; (concentration: 0.5mM) 0.997 ± 0.045.
Regarding UniProt O00567, the NP40-soluble protein abundance (concentration: 0.1mM) is 1.03 ± 0.013 and the NP40-soluble protein abundance (concentration: 0.5mM) amounted to 1.04 ± 0.015.
In the case of UniProt O00560 and related entries, the NP40-soluble protein abundance amounted to 0.988 ± 0.042 (concentration: 0.1mM) and 0.983 ± 0.044 (concentration: 0.5mM).
For “K7ESQ2 and related entries (UniProt Q8NBT2)”, the NP40-soluble protein abundance came out at 0.969 ± 0.082 (concentration: 0.1mM) and 0.981 ± 0.056 (concentration: 0.5mM).
Consider “M0QY01 and related entries (UniProt Q9UBC2)”, for which the NP40-soluble protein abundance by setting is: (concentration: 0.1mM) 0.999 ± 0.02; (concentration: 0.5mM) 0.995 ± 0.048.
Taken in the same sequence, the figures for “K7EJ91 and related entries (UniProt Q8N0Y2)” were 1.019 ± 0.0013 and 1.02 ± 0.033.
On to UniProt O43159, for which the NP40-soluble protein abundance was 1.015 ± 0.0095 (concentration: 0.1mM) and 1.01 ± 0.016 (concentration: 0.5mM).
Regarding “K7EK00 and related entries (UniProt Q96ND0)”, the NP40-soluble protein abundance is 0.966 ± 0.038 (concentration: 0.1mM) and 1 ± 0.045 (concentration: 0.5mM).
Taken in the same sequence, the figures for NVL (UniProt O15381) were 1.03 ± 0.033 and 1.054 ± 0.0082.
On to WASL (UniProt O00401), for which the NP40-soluble protein abundance was 0.9955 ± 0.0037 (concentration: 0.1mM) and 0.9895 ± 0.0082 (concentration: 0.5mM).
As to UniProt O43422, the NP40-soluble protein abundance (concentration: 0.1mM) was determined as 0.986 ± 0.016 and the NP40-soluble protein abundance (concentration: 0.5mM) stood at 0.988 ± 0.015.
As for UniProt O14732 and related entries, the NP40-soluble protein abundance (concentration: 0.1mM) came out at 1.02 ± 0.044 and the NP40-soluble protein abundance (concentration: 0.5mM) came to 0.992 ± 0.065.
Consider GIPC1 (UniProt O14908), for which the NP40-soluble protein abundance is, setting by setting: (concentration: 0.1mM) 1 ± 0.019; (concentration: 0.5mM) 0.999 ± 0.027.
With UniProt O43760 and related entries, the NP40-soluble protein abundance is, setting by setting: (concentration: 0.1mM) 0.979 ± 0.025; (concentration: 0.5mM) 0.98 ± 0.02.
Regarding HAT1 (UniProt O14929), the NP40-soluble protein abundance runs as follows: (concentration: 0.1mM) 1.05 ± 0.048; (concentration: 0.5mM) 1 ± 0.075.
Take UniProt O43865: the NP40-soluble protein abundance (concentration: 0.1mM) turned out to be 0.986 ± 0.024 and the NP40-soluble protein abundance (concentration: 0.5mM) amounted to 1.01 ± 0.042.
UniProt O43310 and related entries: the NP40-soluble protein abundance runs as follows: (concentration: 0.1mM) 1.03 ± 0.014; (concentration: 0.5mM) 1.05 ± 0.034.
For UniProt O43709 and related entries, the NP40-soluble protein abundance is 1.06 ± 0.021 (concentration: 0.1mM) and 1.004 ± 0.01 (concentration: 0.5mM).
Regarding “M0QYT9 and related entries (UniProt Q14653)”, the NP40-soluble protein abundance (concentration: 0.1mM) came out at 1.04 ± 0.023 and the NP40-soluble protein abundance (concentration: 0.5mM) was found to be 0.997 ± 0.029.
EIF3F (UniProt O00303): the NP40-soluble protein abundance is, setting by setting: (concentration: 0.1mM) 1.03 ± 0.027; (concentration: 0.5mM) 1.04 ± 0.012.
Taken in the same sequence, the figures for UniProt O00754 and related entries were 0.975 ± 0.04 and 0.974 ± 0.032.
As to SCAMP1 (UniProt O15126), the NP40-soluble protein abundance (concentration: 0.1mM) came to 0.991 ± 0.019 and the NP40-soluble protein abundance (concentration: 0.5mM) was found to be 1 ± 0.041.
In the case of RFXANK (UniProt O14593), the NP40-soluble protein abundance stood at 0.983 ± 0.012 (concentration: 0.1mM) and 1.002 ± 0.0079 (concentration: 0.5mM).
For UniProt O00410 and related entries, the NP40-soluble protein abundance (concentration: 0.1mM) is 0.979 ± 0.018 and the NP40-soluble protein abundance (concentration: 0.5mM) amounted to 0.999 ± 0.036.
Turning to UniProt O00115 and related entries, the NP40-soluble protein abundance runs as follows: (concentration: 0.1mM) 0.927 ± 0.017; (concentration: 0.5mM) 1.01 ± 0.041.
Consider UniProt O14523 and related entries, for which the NP40-soluble protein abundance stood at 0.978 ± 0.042 (concentration: 0.1mM) and 0.986 ± 0.019 (concentration: 0.5mM).
On to UniProt O14733 and related entries, for which the NP40-soluble protein abundance reads like this: (concentration: 0.1mM) 1.06 ± 0.044; (concentration: 0.5mM) 1.06 ± 0.023.
Regarding “M0R2Z9 and related entries (UniProt Q8IX01)”, the NP40-soluble protein abundance turned out to be 1.03 ± 0.043 (concentration: 0.1mM) and 1.03 ± 0.039 (concentration: 0.5mM).
Take MED7 (UniProt O43513): the NP40-soluble protein abundance reads like this: (concentration: 0.1mM) 1 ± 0.03; (concentration: 0.5mM) 0.995 ± 0.018.
KIF1C (UniProt O43896): the NP40-soluble protein abundance (concentration: 0.1mM) is 0.9502 ± 0.0027 and the NP40-soluble protein abundance (concentration: 0.5mM) worked out at 0.98262 ± 0.00026.
For EXOC5 (UniProt O00471), the NP40-soluble protein abundance (concentration: 0.1mM) worked out at 0.996 ± 0.024 and the NP40-soluble protein abundance (concentration: 0.5mM) stood at 0.991 ± 0.014.
For the target PDCD5 (UniProt O14737), the NP40-soluble protein abundance by setting is: (concentration: 0.1mM) 0.981 ± 0.043; (concentration: 0.5mM) 1.01 ± 0.053.
Consider MRPS12 (UniProt O15235), for which the NP40-soluble protein abundance was found to be 1.02 ± 0.043 (concentration: 0.1mM) and 0.998 ± 0.055 (concentration: 0.5mM).
With CBX4 (UniProt O00257), the NP40-soluble protein abundance is 0.9943 ± 0.0042 (concentration: 0.1mM) and 0.986 ± 0.011 (concentration: 0.5mM).
Regarding “M0R2A0 and related entries (UniProt Q5UCC4)”, the NP40-soluble protein abundance is, setting by setting: (concentration: 0.1mM) 1.02 ± 0.024; (concentration: 0.5mM) 0.978 ± 0.04.
The like results for “K7EJL1 and related entries (UniProt Q9BXS5)” were, in that order, 1.01 ± 0.013 and 0.972 ± 0.087.
With TXNDC9 (UniProt O14530), the NP40-soluble protein abundance by setting is: (concentration: 0.1mM) 0.982 ± 0.056; (concentration: 0.5mM) 0.995 ± 0.059.
Take UniProt O15400 and related entries: the NP40-soluble protein abundance (concentration: 0.1mM) was 0.96 ± 0.036 and the NP40-soluble protein abundance (concentration: 0.5mM) is 1 ± 0.035.
For the target SETD1A (UniProt O15047), the NP40-soluble protein abundance was determined as 0.983 ± 0.033 (concentration: 0.1mM) and 0.993 ± 0.053 (concentration: 0.5mM).
As for UniProt O15111, the NP40-soluble protein abundance is, setting by setting: (concentration: 0.1mM) 1.018 ± 0.0092; (concentration: 0.5mM) 1.04 ± 0.018.
For the target “O14925 and related entries (UniProt Q5SRD1+O14925)”, the NP40-soluble protein abundance reads like this: (concentration: 0.1mM) 1.001 ± 0.0041; (concentration: 0.5mM) 1 ± 0.012.
For the target IGF2BP3 (UniProt O00425), the NP40-soluble protein abundance reads like this: (concentration: 0.1mM) 0.995 ± 0.016; (concentration: 0.5mM) 0.998 ± 0.036.
For the target VWA5A (UniProt O00534), the NP40-soluble protein abundance came to 0.979 ± 0.014 (concentration: 0.1mM) and 0.992 ± 0.023 (concentration: 0.5mM).
UniProt O15234 and related entries: the NP40-soluble protein abundance is, setting by setting: (concentration: 0.1mM) 0.985 ± 0.03; (concentration: 0.5mM) 1.03 ± 0.052.
Consider UniProt O15379 and related entries, for which the NP40-soluble protein abundance by setting is: (concentration: 0.1mM) 0.986 ± 0.036; (concentration: 0.5mM) 1 ± 0.028.
With “K7EJP7 and related entries (UniProt Q7Z4V5)”, the NP40-soluble protein abundance was 0.988 ± 0.023 (concentration: 0.1mM) and 1.01 ± 0.058 (concentration: 0.5mM).
In the case of UniProt O15042-2|O15042, the NP40-soluble protein abundance is, setting by setting: (concentration: 0.1mM) 1.05 ± 0.051; (concentration: 0.5mM) 1.08 ± 0.039.
The like results for UniProt O43156 were, in that order, 1.02 ± 0.01 and 0.9731 ± 0.0081.
For the target ARPC3 (UniProt O15145), the NP40-soluble protein abundance is, setting by setting: (concentration: 0.1mM) 0.983 ± 0.11; (concentration: 0.5mM) 1.14 ± 0.25.
With PSMD9 (UniProt O00233), the NP40-soluble protein abundance worked out at 0.999 ± 0.016 (concentration: 0.1mM) and 0.999 ± 0.029 (concentration: 0.5mM).
Take KPNA3 (UniProt O00505): the NP40-soluble protein abundance (concentration: 0.1mM) was 1.04 ± 0.021 and the NP40-soluble protein abundance (concentration: 0.5mM) is 1.02 ± 0.015.
On to “K7ES11 and related entries (UniProt Q9C0C9)”, for which the NP40-soluble protein abundance came out at 0.971 ± 0.019 (concentration: 0.1mM) and 0.996 ± 0.023 (concentration: 0.5mM).
On to UniProt O00462 and related entries, for which the NP40-soluble protein abundance turned out to be 1.01 ± 0.013 (concentration: 0.1mM) and 1.02 ± 0.027 (concentration: 0.5mM).
In the case of UniProt O15014 and related entries, the NP40-soluble protein abundance is, setting by setting: (concentration: 0.1mM) 0.997 ± 0.083; (concentration: 0.5mM) 1 ± 0.049.
Taken in the same sequence, the figures for RNF113A (UniProt O15541) were 0.964 ± 0.03 and 0.9848 ± 0.0038.
On to SLC25A20 (UniProt O43772), for which the NP40-soluble protein abundance was 1.02 ± 0.025 (concentration: 0.1mM) and 1 ± 0.017 (concentration: 0.5mM).
The like results for “K7ELE3 and related entries (UniProt Q08117)” were, in that order, 0.997 ± 0.024 and 0.969 ± 0.034.
As for UniProt O15260 and related entries, the NP40-soluble protein abundance is, setting by setting: (concentration: 0.1mM) 1.03 ± 0.042; (concentration: 0.5mM) 0.984 ± 0.021.
Regarding “UniProt O00499-2|O00499-4|O00499-6|O00499-7|O00499-9”, the NP40-soluble protein abundance (concentration: 0.1mM) amounted to 0.997 ± 0.0075 and the NP40-soluble protein abundance (concentration: 0.5mM) stood at 0.992 ± 0.033.
As to “M0QYS1 and related entries (UniProt P40429)”, the NP40-soluble protein abundance reads like this: (concentration: 0.1mM) 1.04 ± 0.037; (concentration: 0.5mM) 1.01 ± 0.012.
For the target UniProt O00182 and related entries, the NP40-soluble protein abundance is, setting by setting: (concentration: 0.1mM) 0.998 ± 0.047; (concentration: 0.5mM) 0.987 ± 0.061.
For the target “M0R0Z3 and related entries (UniProt P35269)”, the NP40-soluble protein abundance (concentration: 0.1mM) worked out at 0.974 ± 0.024 and the NP40-soluble protein abundance (concentration: 0.5mM) came out at 1.04 ± 0.07.
With AP3B1 (UniProt O00203), the NP40-soluble protein abundance (concentration: 0.1mM) was 1.02 ± 0.02 and the NP40-soluble protein abundance (concentration: 0.5mM) stood at 1.03 ± 0.027.
Taken in the same sequence, the figures for “K7ENL9 and related entries (UniProt Q96DM3)” were 0.97 ± 0.032 and 0.968 ± 0.055.
On to TXNL1 (UniProt O43396), for which the NP40-soluble protein abundance runs as follows: (concentration: 0.1mM) 0.996 ± 0.027; (concentration: 0.5mM) 0.973 ± 0.058.

The values are drawn from the supplement of paper PMC6411743.
